# These are yes or no findings as the source states them, for the method shown. Some entries that bind do so weakly or less than the wild type. Sequences can lack the tags named with a protein.
# T1: human Gal10-His (human) (UniProt Q05315)
# T1 sequence: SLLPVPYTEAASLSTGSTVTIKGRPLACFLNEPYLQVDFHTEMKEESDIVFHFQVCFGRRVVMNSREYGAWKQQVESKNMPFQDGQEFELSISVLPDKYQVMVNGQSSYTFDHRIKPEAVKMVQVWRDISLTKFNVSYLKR
# B1: g7B07_N53A (human Fab) (Fab, V domains shown)
# VH: EVQLLESGGGLVQPGGSLRLSCAASGFTFRSYDMSWVRQAPGKGLEWVSAIKAGGGITYYADSVKGRFTISRDNSKNTLYLQMNSLRAEDTAVYYCATTHGIGTLGFGSWGQGTLVTVSS
# VL: SYELTQPLSVSVALGQTARITCDGNNIGSKSAQWYQQKPGQAPVLVIYADEYRPEGIPERFSGSNSGNTATLTISRAQAGDEADYYCQVWDGSAAVFGGGTQLTVL
# Target: T1, human Gal10-His (human)
# Test: SPR (Biacore 3000): % relative activity of stressed Fab samples against a titration curve of the T0 reference (-80°C). Binding is to Gal10.
binder,measurement,value
B1,binding,binds
